Experimental findings from publication PMC10481361, “Structural insight into G-protein chaperone-mediated maturation of a bacterial adenosylcobalamin-dependent mutase” (The Journal of Biological Chemistry, 2023) are described below.

No constants are given. Whether binding was seen depends on the method and setting. Sequences can lack the tags named with a protein.

Test [1] addresses Cupriavidus metallidurans isobutyryl-CoA mutase fused (IcmF), wild type (Cupriavidus metallidurans) (UniProt Q1LRY0). Briefly: condition: only with no nucleotide or with 500 μM GDP (dimer with dimer; 20 ng/μl IcmF); negative stain EM; 20 ng/μl wt IcmF in 20 mM Hepes pH 8, 50 mM NaCl, no nucleotide or 500 μM GDP (30 min on ice); dimer seen, dimer with dimer not seen; both purified.

Test [2] has the same target. Briefly: condition: only with no nucleotide or with 500 μM GDP, with AdoCbl or OHCbl (dimer with dimer; 20 ng/μl IcmF); negative stain EM; 20 ng/μl wt IcmF with 500 μM AdoCbl (dark or exposed to light) or OHCbl, no nucleotide or 500 μM GDP; both purified.

B1: Cupriavidus metallidurans isobutyryl-CoA mutase fused (IcmF), wild type (enzyme, UniProt Q1LRY0 1-1093, looked up)
chain: MTDLSDVSRTAAAKPPAVPGRGPANKVRFVTAASLFDGHDASINIMRRILQSQGCEVIHLGHNRSVQEVVTAALQEDVQGIAISSYQGGHVEYFKYMIDLLREHGGEHIQVFGGGGGVIVPDEIRELQAYGVARIYSPEDGQRMGLAGMITDMAQRCDIDLTRYAPTTLDTVVAGDRRALAQLITALENGKADPELVSALHAQAKAAAVPVLGITGTGGAGKSSLTDELIRRFRLDQDDALSIAVISIDPSRRKSGGALLGDRIRMNAINHPNIFMRSLATREAGSEISQALPDVIAACKAARFDLVIVETSGIGQGDAAIVPHVDLSLYVMTPEFGAASQLEKIDMLDFADFVAINKFDRKGAQDAWRDVAKQVQRNREQWHSRAEDMPVYGTQASRFNDDGVTMLYQGLVGALGARGMSLKPGTLPNLEGRISTGQNVIVPPARSRYLAELADTVRAYHRRVVAQSKLARERQQLRAAHDMLQGAGHESAALETLASERDVSLGAVERKLLAMWPQMQQAYSGDEYVVKIRDKEIRTGLISTTLSGTKIRKVVLPRFEDEGEILKWLMRENVPGSFPYTAGVFAFKREGEDPTRMFAGEGDAFRTNRRFKLVSEGMEAKRLSTAFDSVTLYGEDPHERPDIYGKVGNSGVSIATLEDMKVLYDGFDLTNPSTSVSMTINGPAPTILAMFMNTAIDQQIDRFRADNGRDPTADEEAKIRAWVLQNVRGTVQADILKEDQGQNTCIFSTEFSLKVMGDIQEYFVHHQVRNFYSVSISGYHIAEAGANPISQLAFTLANGFTYVEAYLARGMHIDDFAPNLSFFFSNGMDPEYSVLGRVARRIWAVTMRDKYGANDRSQKLKYHIQTSGRSLHAQEIDFNDIRTTLQALIAIYDNCNSLHTNAYDEAITTPTAESVRRALAIQLIINREWGVAKCENPNQGSFLIEELTDLVEEAVLQEFERIAERGGVLGAMETGYQRGKIQEESLYYEQLKHDGTLPIIGVNTFRNPNGDPTPQTLELARSSEDEKQSQLHRLTEFHGAHQADAEAMLARLRQAVIDNRNVFAVLMDAVRVCSLGQITHALFEVGGQYRRNM
notes: Isobutyryl-CoA mutase fused (IcmF) of Cupriavidus metallidurans; Resting state is a homodimer; dimers join through their G-protein domains into higher-order oligomers; The plasmid has a thrombin cleavage site after the His-tag; no cleavage is described; also called wt IcmF; cmIcmF; source: E. coli BL21 T7 Express, purified (Ni-NTA, MonoQ, SEC)
B1: the binding entry in test [1] and in test [2] was “no binding” each time.
